The structures appear in SMILES notation. Several values for one entry are separate records, joined by “and”; a condition that tells them apart may be missing. Equal entries are not always repeated. Structures can show the parent of a compound that is named as a salt. Some of the results follow. Single values are uncertain here, since repeats match poorly.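 HEK293T cells were given each compound shortly before transfection with a reporter in which red mCherry is followed by the SARS-CoV-2 frameshift element and then GFP in the −1 frame, so GFP appears only after frameshifting.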

For this test, the system named is HEK293T. As to the kind of experiment: percent viability (nuclei count) relative to control; higher = more viable cells. The note with it: 10 µM; 24 h.
`NC(=O)c1ncn([C@@H]2O[C@H](CO)[C@@H](O)[C@H]2O)n1` [ribavirin]: the percent viability was 180% and 198%.
The value for `CC(C)(C)NCC(O)c1cc(Br)no1` (stereo not given) [broxaterol] was 236%; that for `CN(C)C(=O)Cn1cc(-c2nc([C@@](C)(c3ccc(-c4cnc(N)nc4)cc3)C3CC3)no2)cn1` was 226%; that for `O=C1C2CC3CC1CC(O)(C3)C2` [idramantone] was 268%.
The value for `O=C(O)COc1ccccc1/C=N/NC(=O)c1ccncc1` [aconiazide] was 27.1%.
The value for `C/C(=N\O)C(C)NCC(C)(C)CNC(C)/C(C)=N/O` (stereo not given) [exametazime] was 179%; that for `CCCCCCCCCCCCCC[n+]1ccc(C)cc1` [miripirium] was 110%; that for `C[C@]12CC[C@@H]3c4ccc(O)cc4CC[C@H]3[C@@H]1C[C@H](O)[C@@H]2O` was 284%.
As for `CC(=O)OCC(=O)[C@@]1(O)CC[C@H]2[C@@H]3CCC4=CC(=O)CC[C@]4(C)C3=CC[C@@]21C` [anecortave], the percent viability came out at 336%.
The value for `Cc1c2oc3c(C)ccc(C(=O)N[C@@H]4C(=O)N[C@H](C(C)C)C(=O)N5CCC[C@H]5C(=O)N(C)CC(=O)N(C)[C@@H](C(C)C)C(=O)O[C@@H]4C)c3nc-2c(C(=O)N[C@@H]2C(=O)N[C@H](C(C)C)C(=O)N3CCC[C@H]3C(=O)N(C)CC(=O)N(C)[C@@H](C(C)C)C(=O)O[C@@H]2C)c(N)c1=O` [dactinomycin] was 12.5%; that for `CCN(CC)CC#CCOC(=O)C(O)(c1ccccc1)C1CCCCC1` (stereo not given) [oxybutynin] was 271%.
As to `O=C(O)CP(=O)(O)O` [fosfonet], the percent viability came out at 194%.
The value for `Cc1c(NC(C)C)c(=O)n(-c2ccccc2)n1C` [ramifenazone] was 44.3%; that for `N=C(N)NCC1COC2(CCCCC2)O1` (stereo not given) was 350%; that for `CC(C)Cc1ccc([C@H](C)C(=O)O)cc1` [dexibuprofen] was 292%.
Under `CCN(CC)CCNc1ccc(C)c2sc3ccccc3c(=O)c12` [lucanthone] stands 255%; under `C[C@H](C#Cc1ccc(Cc2ccc(F)cc2)s1)N(O)C(N)=O` [atreleuton], 135%.
Turning to `CC(=O)OCC(=O)[C@@]12OC3(CCCC3)O[C@@H]1C[C@H]1[C@@H]3CCC4=CC(=O)C=C[C@]4(C)[C@@]3(F)[C@@H](O)C[C@@]12C` [amcinonide], the percent viability is 298% and 131%.
Turning to `CNC(=S)NCCSCc1[nH]cnc1C` [metiamide], the percent viability was found to be 212%.
Under `CCOC(=O)C1=C[C@@H](OC(CC)CC)[C@H](NC(C)=O)[C@@H](N)C1` [oseltamivir] stands 203%; under `CN/C(=N\c1ccc(C2=NNC(=O)CC2C)cc1)NC#N` (stereo not given) [Siguazodan], 191%; under `CCOc1cc(-c2nccc3cc(OC)c(OC)cc23)cc(OCC)c1OCC` [octaverine], 64.8%.
Under `OCCc1ccccc1` stands 167%.
Under `O=C(O)CN(CCN(CC(=O)O)CC(=O)O)CC(=O)O` [edetic acid] stands 302%; under `CC(=O)Oc1cccc2c1C(=O)c1c(OC(C)=O)cc(C(=O)O)cc1C2=O` [diacerein], 301%; under `O=C(c1ccc(OCCN2CCCCC2)cc1)c1c(-c2ccc(O)cc2)sc2cc(O)ccc12` [raloxifene], 330% and 383%.
For `COC(=O)C[C@](O)(CCCC(C)(C)O)C(=O)O[C@@H]1C(OC)=C[C@]23CCCN2CCc2cc4c(cc2[C@H]13)OCO4` [omacetaxine mepesuccinate], the percent viability was found to be 6.92%.
Turning to `CCN[C@H]1C[C@H](C)S(=O)(=O)c2sc(S(N)(=O)=O)cc21` [dorzolamide], the percent viability amounted to 250%.
The value for `Nc1ccc(S(=O)(=O)c2ccc(N)cc2)cc1` [dapsone] was 102%; that for `Clc1ccc(C(Cn2ccnc2)OCc2ccsc2Cl)c(Cl)c1` (stereo not given) [tioconazole] was 271%.
For the compound `Cc1cc2c(OCC(O)CNC(C)C)cccc2[nH]1` (stereo not given) [mepindolol], the percent viability stood at 273%.
The value for `N/C=C1\Cc2ccccc2C1=O` [drinidene] was 179%; that for `COC(=O)[C@@H]1[C@H]2C[C@H]3c4[nH]c5ccccc5c4CCN3C[C@@H]2CC[C@@H]1O` [Yohimbine·HCl] was 270%.
For `COc1ccccc1N1CCN(CCCNc2cc(=O)n(C)c(=O)n2C)CC1` [urapidil], the percent viability was 258%.
Under `CCCCOCCOCCOCc1cc2c(cc1CCC)OCO2` stands 340%; under `c1ccc(Cc2nc3ccccc3[nH]2)cc1` [bendazol], 25.4%; under `N#Cc1c[nH]c2c(C(=O)N3CCN(CCc4ccc(F)cc4)CC3)cccc12` [pruvanserin], 122%.
As for `CCCCCCCCCC(=O)N[C@H]1[C@H](Oc2c3cc4cc2Oc2ccc(cc2Cl)[C@@H](O[C@@H]2O[C@H](CO)[C@@H](O)[C@H](O)[C@H]2NC(C)=O)[C@@H]2NC(=O)[C@H](NC(=O)[C@@H]4NC(=O)[C@H]4NC(=O)[C@@H](Cc5ccc(c(Cl)c5)O3)NC(=O)[C@H](N)c3ccc(O)c(c3)Oc3cc(O)cc4c3)c3ccc(O)c(c3)-c3c(OC4O[C@H](CO)[C@@H](O)[C@H](O)[C@@H]4O)cc(O)cc3[C@@H](C(=O)O)NC2=O)O[C@H](CO)[C@@H](O)[C@@H]1O` (stereo not given in full) [teicoplanin], the percent viability is 206%.
The value for `O=C1c2cccc(O)c2C(=O)c2c(O)cccc21` [dantron] was 148%; that for `NC(=O)c1cnccn1` [pyrazinamide] was 133%.

(Values after the supplement of paper PMC8256030.)
